PubChem BioAssay AID588497 (NMMLSC, 2011)
The whole screen tested about 360,000 compounds, of which about 780 (0.22%) were called active. Cut-off read from the data, not from the text of the source: active = inhibition above about 35% (passing the limit was not always enough); inconclusive = no clear call, values can overlap the other calls. Inconclusive results, whose numbers are uncertain, are shown.

test system: Botulinum neurotoxin type F light chain protease (Clostridium botulinum); assay: BoNT/F light chain protease inhibitors, primary screen, biochemical, flow cytometry, MLPCN library (AID 588497); conditions: Multiplex microsphere protease cleavage assay, at 10 µM, stronger effect = higher value; note: plate controls were buffer without enzyme for full effect and enzyme alone for no effect

Structure (SMILES) | inhibition
O=C(NN1C(=O)/C(=C/c2ccc(O)cc2)SC1=S)c1ccccc1O | inconclusive: 1.3%
O=C1NN(c2ccc(F)c(Cl)c2)C(=O)/C1=C\c1cccc(OC(=O)c2cccs2)c1 | inconclusive: -0.5%
COc1cc(/C=C2/C(=O)NN(c3ccc(Cl)cc3)C2=O)cc(Br)c1O | inconclusive: 21.2%
COC(=O)c1sc(-c2ccc(C(C)(C)C)cc2)cc1NC(=O)COCC(=O)O | inconclusive: -42.2%
CC(C)(C)CC(C)(C)c1ccc(OCC(=O)N/N=C/c2ccc(S(=O)(=O)O)o2)cc1 | inconclusive: -13.1%
